Out of some 300,000 compounds screened, about 5,400 (1.8%) were called active. Inconclusive means that the source gave no clear call. Such entries were picked first, then a sample of the others. Calls come from the whole dose curve; tested in HEK293 cells. Where the call is inconclusive, the potency comes from a doubtful curve fit.
Experiment: qHTS for inhibitors of binding or entry into cells for Marburg Virus
Details: Marburg virus pseudotyped entry inhibition, cell reporter; activity change, negative = inhibition: at 37.8 µM (top of the series) unless noted
% is set by controls: 0 for no effect and ±100 for the full control effect; potency is the fitted concentration of half-maximal effect.

SMILES	Potency	activity change, negative = inhibition
CCOC(=O)N1CCN(C(=O)C(=O)Nc2sc3c(c2C#N)CC(C)(C)OC3)CC1	inconclusive: 0.501 µM [activator, full curve, poor fit]	
CC1(C)C(=O)NCCN1C(=O)c1ccc2nc(Cc3ccccc3F)oc2c1	inconclusive: 2.24 µM [inhibitor, partial curve, poor fit]	
CC(C)c1ccc(-c2noc(C3CCCN(C(=O)c4ccc(F)cc4F)C3)n2)cc1 (centres undefined)	inconclusive: 16.4 µM [inhibitor, single point]	
O=C(NCC(c1cccnc1)N1CCN(c2ccc(F)cc2)CC1)c1cccc(Cl)c1 (centres undefined)	inconclusive: 11.2 µM [inhibitor, partial curve, poor fit]	
CCCCOn1c(C)c(C(C)=O)c2c3no[n+]([O-])c3ccc21		inactive: -18.1% [at 46.1 µM]
C[C@@H]1C(=O)O[C@H]2[C@H](O)[C@@]34[C@H]5C[C@@H](C(C)(C)C)[C@]36[C@@H](OC(=O)[C@@H]6O)O[C@@]4(C(=O)O5)[C@@]12O	inconclusive: 2.24 µM [inhibitor, partial curve, poor fit]	
O=c1n(S(=O)(=O)c2cccc3cccnc23)c2ccccc2n1S(=O)(=O)c1cccc2cccnc12	inconclusive: 10.3 µM [inhibitor, partial curve, poor fit]	
COc1ccc(C(=O)C[n+]2cc(-c3ccc(OC)cc3)n3c2CCCC3)cc1	inconclusive: 12.6 µM [inhibitor, partial curve, poor fit]	
COc1ccc(-n2nc(N)c(C(N)=O)n2)cc1	inconclusive: 10 µM [activator, partial curve, poor fit]	
CC(C)CCNC(=O)c1ccc2c(c1)ncn2C1CCCC1		inactive: -12.3% [at 46.1 µM]
Cc1ccc(N=C2NC(=O)/C(=C\c3ccco3)S2)cc1		inactive: 7.14%
CCN(C(=O)CSc1nnnn1C)C1CCS(=O)(=O)C1 (centres undefined)	inconclusive: 0.282 µM [inhibitor, full curve, poor fit]	
Cc1cc(NS(=O)(=O)c2ccc(NC(=O)c3ccc([N+](=O)[O-])s3)cc2)nc(C)n1		inactive: -20.2%
Cc1ccc(C)c(-n2cc(CN3CCN(C(=O)c4ncn[nH]4)CC3)c(-c3ccccc3)n2)c1	inconclusive: 35.5 µM [inhibitor, single point]	
Cc1c(Cl)cccc1NC(=O)N1CCCN(c2nc(-c3ccccc3)ns2)CC1	inconclusive: 5.62 µM [inhibitor, full curve, poor fit]	
Cc1ccc(OCC(=O)N2CCN(Cc3ccc4c(c3)OCO4)CC2)cc1C		inactive: -16.5%
CCCCCn1c(=O)[nH]c2cc(C(=O)NCCCN(CC)CC)ccc2c1=O		inactive: -27.4%
COc1ccc(Cl)c2sc(N(CCN(C)C)C(=O)c3ccc4c(c3)OCCO4)nc12	inconclusive: 8.91 µM [inhibitor, partial curve, poor fit]	
O=C(c1ccco1)N1CCN(C2CN(C3CCCC3)S(=O)(=O)C2)CC1 (centres undefined)	inconclusive: 12.5 µM [activator, single point]	
COc1ccc(-c2ccc(C(=O)C3CC3)cc2)cc1	inconclusive: 3.98 µM [inhibitor, partial curve, poor fit]	
CCOC(=O)c1c(-c2ccccc2)nnn1-c1nc(OCC)nc(N2CCCCC2)n1	inconclusive: 35.5 µM [inhibitor, single point]	
O=C(Nc1ccccc1F)c1ccc(COc2ccc(Cl)cc2Cl)o1		inactive: -15.2% [at 46.1 µM]

SMILES	Potency	activity change, negative = inhibition
CCOc1ccccc1NC(=O)[C@@H](NC(=O)c1ccccc1F)C(C)C	inconclusive: 5.62 µM [inhibitor, single point]	
Cc1cccc(COc2ccc(/C(O)=C3\C(=O)C(=O)N(CCN(C)C)[C@H]3c3ccncc3)cc2)c1		inactive: 8.12%
O=C(Cn1cc(C(=O)C2CC2)c2ccccc21)NC1CCCC1	inconclusive: 35.5 µM [activator, single point]	
CCC12CN3CCN(CC(C3)/C1=N/NC(N)=O)C2		inactive: 7.13% [at 46.1 µM]
CCCSc1cc(N2CCOCC2)nc(-c2ccccc2Cl)n1		inactive: -1.24%
CN(CP(=O)(O)C(O)c1ccccc1)S(C)(=O)=O (centres undefined)		inactive: -2.16%
CN(C)Cc1ccc(F)cc1Sc1ccc(Cl)cc1Cl	inconclusive: 14.1 µM [inhibitor, single point]	
C=C1C[C@@]23CC[C@H]4[C@@](C)(CCC[C@@]4(C)C(=O)OC4OC(CO)C(O)C(O)C4O)[C@@H]2CC[C@]1(OC1OC(CO)C(O)C(O)C1OC1OC(CO)C(O)C(O)C1O)C3 (some centres undefined)		inactive: 1.5%
Nc1cc(Cl)ccc1Oc1ccc(Cl)cc1	inconclusive: 8.2 µM [inhibitor, partial curve, poor fit]	
O=C(COC(=O)c1ccc([N+](=O)[O-])s1)NC(c1ccccc1)c1ccccc1	inconclusive: 0.631 µM [activator, single point]	
COc1cccc(NC(=O)C2CCCN(S(=O)(=O)c3cccc4nsnc34)C2)c1 (centres undefined)	inconclusive: 35.5 µM [inhibitor, single point]	
O=C1C2C3C=CC(CC3)C2C(=O)N1/N=C/c1ccco1 (centres undefined)		inactive: -0.529% [at 46.1 µM]
CCOc1ccccc1CN1CCN(C2CCN(c3ccccc3F)CC2)CC1CCO (centres undefined)	inconclusive: 2.82 µM [inhibitor, partial curve, poor fit]	
Cc1ccc(-n2cc(CN(C)Cc3nccn3C)c(-c3cccc(C)c3)n2)cc1	inconclusive: 14.1 µM [inhibitor, partial curve, poor fit]	
Cc1cccc(C(=O)NN2S(=O)(=O)c3ccccc3S2(=O)=O)c1		inactive: -2.81% [at 46.1 µM]
CCN(CC)c1ncnc2c1[nH]c1ccccc12	inconclusive: 22.4 µM [inhibitor, partial curve, poor fit]	
Cc1ccc(CC(=O)NCCCn2ccnc2)cc1		inactive: 10% [at 46.1 µM]
CC1CCc2cc(F)ccc2N1C(=O)C1(C)CC1(Cl)Cl (centres undefined)	inconclusive: 6.51 µM [inhibitor, single point]	
N/C(=N\c1nc2c(c(=O)[nH]1)CCC2)Nc1cccc2ccccc12	inconclusive: 29.1 µM [inhibitor, partial curve, poor fit]	
Nc1c2c(nc3sc4c(c13)CCCCC4)CCCCC2	inconclusive: 1.46 µM [activator, full curve]	
CCCN(CCC)Cc1c(C(=O)N/N=C/c2ccc(C)o2)nnn1-c1nonc1N		inactive: -28.6% [at 46.1 µM]
COCCNC(=O)CCC1CCN(Cc2ccc(-c3ccccc3)cc2)CC1	inconclusive: 3.98 µM [inhibitor, full curve]	

Exported with each value named: 3 of the compounds above
Cc1ccc(C)c(-n2cc(CN3CCN(C(=O)c4ncn[nH]4)CC3)c(-c3ccccc3)n2)c1
  Potency: inconclusive: 35.5 µM [inhibitor, single point]
Cc1c(Cl)cccc1NC(=O)N1CCCN(c2nc(-c3ccccc3)ns2)CC1
  Potency: inconclusive: 5.62 µM [inhibitor, full curve, poor fit]
Cc1ccc(OCC(=O)N2CCN(Cc3ccc4c(c3)OCO4)CC2)cc1C
  activity change, negative = inhibition: inactive: -16.5%

Further compounds

SMILES	Potency	activity change, negative = inhibition
Cc1cc(-c2nnc(SCC(=O)Nc3ccccn3)o2)no1	inconclusive: 1.26 µM [inhibitor, single point]	
N#C/C(=C\c1ccc(-c2ccc(F)cc2)o1)C(=O)Nc1nc(-c2cccs2)cs1	inconclusive: 7.94 µM [inhibitor, partial curve, poor fit]	
CCOC(=O)c1c(NC(=O)c2cc3n(n2)C(C(F)(F)F)CC(c2ccccc2)N3)sc(C)c1C (centres undefined)	inconclusive: 11.2 µM [inhibitor, single point]	
CCN1C(=NCc2cccc(C(F)(F)F)c2)NC(c2cccs2)C(C(=O)OC)=C1C (centres undefined)	inconclusive: 2.66 µM [inhibitor, partial curve, poor fit]	
COCCOC(=O)c1c(C)oc2ccc(O)c(CN3CCC(C)CC3)c12 (tested in a mixture with another compound)	inconclusive: 12.6 µM [inhibitor, partial curve, poor fit]	
O=C(ONC1=NCCCCC1)c1ccc([N+](=O)[O-])cc1	inconclusive: 14.1 µM [inhibitor, partial curve, poor fit]	
CCOC(=O)C1CCN(C(=O)Nc2cccc(Cl)c2)CC1	inconclusive: 1.26 µM [inhibitor, single point]	
COCCn1c(C)cc(C(=O)COC(=O)c2ccc(Cl)c(S(N)(=O)=O)c2)c1C	inconclusive: 7.08 µM [inhibitor, partial curve, poor fit]	
Cc1ccc(-c2ccc(/C=N/NC(N)=S)o2)cc1	inconclusive: 7.08 µM [inhibitor, partial curve, poor fit]	
CC(=O)OC1N=C(c2ccccc2)c2cc(C)ccc2NC1=O (centres undefined)	inconclusive: 6.31 µM [activator, partial curve, poor fit]	
COP(=S)(OC)SCn1nnc2ccccc2c1=O	inconclusive: 1.12 µM [activator, full curve, poor fit]	
CC(=O)c1cc(C(=O)N2CCc3c([nH]c4ccccc34)C2CC(C)C)[nH]n1 (centres undefined)	inconclusive: 12.6 µM [inhibitor, partial curve, poor fit]	
COc1cc(/C(C)=N/NC(=O)Cc2c(C)[nH][nH]c2=O)ccc1O		inactive: 28.8%
COc1ccc(Cl)cc1S(=O)(=O)NC(C)C(=O)NCCCn1ccnc1 (centres undefined)		inactive: 13.6%
COc1ccc2oc(C(=O)OCC(=O)NC3CCCC3)c(C)c2c1	inconclusive: 22.4 µM [activator, partial curve, poor fit]	
C/C(=N\NC(=O)CSCc1ccc(Cl)cc1)c1ccc2c(c1)OCCO2	inconclusive: 6.51 µM [inhibitor, partial curve, poor fit]	
CC(=O)NC12CC3CC(C1)CC(C(=O)OCC(=O)c1cc(C)n(C)c1C)(C3)C2	inconclusive: 14.1 µM [inhibitor, single point]	
CC(=O)c1ccc(NC(=O)C2CCCNC2=O)cc1 (centres undefined)	inconclusive: 14.6 µM [activator, partial curve, poor fit]	
Cc1ccccc1-n1c2nc(=O)n(C)c(=O)c-2cc2ccccc21		inactive: -11.7% [at 14.2 µM]
CSc1ccc(C(=O)C2CCCN(Cc3cccn3-c3cccnc3)C2)cc1 (centres undefined)	inconclusive: 3.16 µM [inhibitor, partial curve, poor fit]	

Reference: PubChem BioAssay AID540276 (National Center for Advancing Translational Sciences (NCATS), 2011)
